No constants are given. Whether binding was seen depends on the method and setting. Some binding calls cover weakened binding; strength is not graded here.
B1: murine OX40 hybridoma antibody 3G4 (antibody, V domains shown)
VH: EVQLQQSGPELVKPGTSVKMSCKASGYRFTSYVLHWVRRKPGQGLEWIGYVNPFNDNTRYNEKFKAKATLTSDKSSSTAYMDLVSLTSEDSAVYYCSRGLYDYSYVMDYWGQGTSVTVSS
VL: DIQMTQTTSSLSASLGDGVTITCQASQDIRNYLNWYQQKPDGTIKLLIYHTSKLHSGVPSRFSGGGSGTDFSLTISNLDQEDIATYFCQQSQTLPYTFGGGTKLEIKR
B2: humanized anti-OX40 antibody hu3G4-DE (antibody, V domains shown)
VH: QVQLVQSGAEVKKPGASVKVSCKASGYRFTSYVLHWVRQAPGQRLEWIGYVNPFNDNTRYNEKFKARATLTSDKSASTAYMELSSLRSEDTAVYYCSRGLYDYSYVMDYWGQGTLVTVSS
VL: DIQMTQSPSSLSASVGDRVTITCQASQDIRNYLNWYQQKPGKAPKLLIYHTSKLHSGVPSRFSGSGSGTDFTFTISSLQPEDIATYYCQQSNTLPYTFGQGTKLEIK

Chains of the proteins cited; added tags and fusions are not shown. Residues count along the entry.
UniProt P43489, residues 29-277: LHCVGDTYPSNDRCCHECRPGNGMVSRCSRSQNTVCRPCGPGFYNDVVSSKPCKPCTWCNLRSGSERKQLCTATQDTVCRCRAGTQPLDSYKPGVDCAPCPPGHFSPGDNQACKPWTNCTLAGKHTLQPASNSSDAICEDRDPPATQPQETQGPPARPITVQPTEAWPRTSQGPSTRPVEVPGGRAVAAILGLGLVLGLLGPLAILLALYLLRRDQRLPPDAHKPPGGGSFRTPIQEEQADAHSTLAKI

Tests used:
[1] = target: human OX40 expressed on cells (293T-OX40, Jurkat-OX40) (human) (UniProt P43489); assay: ELISA on OX40-ECD-hFc and FACS on 293T-OX40 cells
[2] = target: human OX40 expressed on cells (293T-OX40, Jurkat-OX40) (human) (UniProt P43489); assay: FACS on 293T-OX40 cells

Binder	binding [1]	binding [2]
B1	binds	–
B2	–	binds

Reference: US20250051468A1
